Paper PMC8599580
Results are given in words; binding and its absence hold for the method and conditions named. Some binding calls cover weakened binding; strength is not graded here.

Protein sequences, listed by entry. Tags and fused reporters are not part of them. Residues count along the entry.
UniProt O13057, residues 25-260: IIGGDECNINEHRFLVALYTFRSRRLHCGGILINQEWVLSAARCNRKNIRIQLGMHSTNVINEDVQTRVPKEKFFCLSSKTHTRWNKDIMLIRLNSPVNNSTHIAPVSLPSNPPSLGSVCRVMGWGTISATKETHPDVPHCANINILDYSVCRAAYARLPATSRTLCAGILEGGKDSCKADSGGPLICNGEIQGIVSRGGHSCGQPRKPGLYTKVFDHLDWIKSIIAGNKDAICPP
UniProt P05620, residues 25-260: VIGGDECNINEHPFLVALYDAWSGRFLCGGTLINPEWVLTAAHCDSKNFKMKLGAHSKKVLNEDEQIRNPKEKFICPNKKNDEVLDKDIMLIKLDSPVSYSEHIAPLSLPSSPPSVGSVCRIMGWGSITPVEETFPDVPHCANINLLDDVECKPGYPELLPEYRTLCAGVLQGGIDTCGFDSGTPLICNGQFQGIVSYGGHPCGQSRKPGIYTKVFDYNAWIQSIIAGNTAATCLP

Experiments:
[1] = biological target: thrombin-like serine protease TLSP2 (TLf2) (Protobothrops flavoviridis) (UniProt O13057); test: SPR; BIAcore X; TLf2 or TLf1 amine-coupled on CM5 chip; BPII or [Asp49] PLA2 injected as analytes (12.5-100 ug/ml) in HBS (10 mM HEPES pH 7.4, 0.15 M NaCl, 3 mM EDTA, 0.005% P-20), 20 uL/min; unmodified CM5 as control; regeneration 10 mM HCl; both purified
[2] = biological target: flavoxobin (TLf1) (Protobothrops flavoviridis) (UniProt P05620); test: as above

B1: P. flavoviridis [Asp49] PLA2 (enzyme, UniProt P06859 17-138)
chain: GLWQFENMIIKVVKKSGILSYSAYGCYCGWGGRGKPKDATDRCCFVHDCCYGKVTGCNPKLGKYTYSWNNGDIVCEGDGPCKEVCECDRAAAICFRDNLDTYDRNKYWRYPASNCQEDSEPC
For B1, which binding [1] is on record?
The binding was “binds weakly”.

And the binding [2]?
The binding was “binds weakly”.
